{"source": "PubChem BioAssay (NCATS)", "note": "Inconclusive results, whose numbers are uncertain, are shown with a selection of clear calls. A potency beside an inconclusive call is a rough fit, not a confirmed value. The source made the active and inactive calls. Calls follow the shape of the dose curve; as a rule, active = well fitted cell-killing curve with a large enough effect; inconclusive = small, poorly fitted or top-dose-only effect, or effect the other way; inactive = no such curve, though single readings can be large or run the other way. Potency is read from the fitted curve at half-maximal effect."}
{"experiment": "Quantitative High-Throughput drug screen in 47 multiple myeloma cell lines against the NCATS MIPE library collection: KMS28BM_JCRB cell viability assay (AID 1919874); also: nearly all actives have a fitted effect of over 35% in size", "settings": "CellTiter-Glo ATP, 48 h; viability, % of control: at 45.8 µM (top of the series)", "description": "PI: Beverly A. Mock Ph.D.\nLaboratory of Cancer Biology and Genetics,\nCenter for Cancer Research, National Cancer Institute,\nNational Institute of Health, Bethesda, Maryland\nDrug resistance and disease progression are common in multiple myeloma (MM) patients, underscoring the need for new therapeutic combinations. […] We hypothesized that effective combinations would reduce MYC expression and enhance p16 activity. […] These preclinical data identify potentially useful drug combinations for evaluation in drug-resistant MM and reveal potential mechanisms of combined drug sensitivity.\nDescribed herein is the primary MIPE qHTS used to cherrypick compounds. Validated compounds were then further tested for potential synergistic activiy.\n[1] Peat TJ, Gaikwad SM, Dubois W, Gyabaah-Kessie N, Zhang S, Gorjifard S, Phyo Z, Andres M, Hughitt VK, Simpson RM, Miller MA, Girvin AT, Taylor A, Williams D, D'Antonio N, Zhang Y, Rajagopalan A, Flietner E, Wilson K, Zhang X, Shinn P, Klumpp-Thomas C, McKnight C, Itkin Z, Chen L, Kazandijian D, Zhang J, Michalowski AM, Simmons JK, Keats J, Thomas CJ, Mock BA. Drug combinations identified by high-throughput screening promote cell cycle transition and upregulate Smad pathways in myeloma. Cancer Lett. 2023 Aug 1;568:216284. doi: 10.1016/j.canlet.2023.216284. Epub 2023 Jun 24. PMID: 37356470; PMCID: PMC10408729.\nSEQUENCE No. (e.g., 1, 2, 3, etc.); […] (e.g., Cells, Incubation, Reagent, etc.); VALUE and DESCRIPTION.\n1; Cells; 5 uL; white, solid bottom 1536-well Greiner assay plate.\n2; Compounds; 23 nL; Kalypsis pin tool (Wako USA) equipped with a 1536-well pin head to transfer to the assay plates.\n3; Incubation; 48 hours; 37C incubation.\n4; Reagent;5uL; CellTiter Glo (Promega).\n5; Detector; 425V; Luminescence; Viewlux PerkinElmer.\nNOTES (numbers refer to Sequence numbers above)\n1. The cell-based screening methods employed in this study were like those previously published. Briefly, the corresponding myeloma cell lines were screened in 1,536-well plates with 500 cells, 5-uL per well for inhibition of cell viability (assessed by measuring ATP levels with CellTiterGlo).\n2. NCATS MIPE 4.0 library of approved and investigational drugs were added using the Kalypsis pin tool. Wells treated with DMSO only for 100% viability and media only for 0% viability were used as controls.\n3. The assay plates were covered and incubated for 48 hours in a 37C, 5% CO2 incubator with controlled humidity.\n4. After 48 hours, CellTilter-GloTM luminescent substrate mix (Promega) reagent was added to the assay plate and plates we incubated for 5 min at room temperature.\n5. Signal was measured as median relative luminescence units on a ViewLux (PerkinElmer) multiplate reader.\n[1] Heske CM, Davis MI, Baumgart JT, Wilson K, Gormally MV, Chen L, Zhang X, Ceribelli M, Duveau DY, Guha R, Ferrer M, Arnaldez FI, Ji J, Tran HL, Zhang Y, Mendoza A, Helman LJ, Thomas CJ. Matrix Screen Identifies Synergistic Combination of PARP Inhibitors and Nicotinamide Phosphoribosyltransferase (NAMPT) Inhibitors in Ewing Sarcoma. Clin Cancer Res. 2017 Dec 1;23(23):7301-7311. doi: 10.1158/1078-0432.CCR-17-1121. Epub 2017 Sep 12. PMID: 28899971; PMCID: PMC6636827."}
{"smiles": "CCOc1ccn(-c2ccc(F)cc2)c(=O)c1C(=O)Nc1ccc(Oc2ccnc(N)c2Cl)c(F)c1", "Potency": "inconclusive: 20.9 µM [cytotoxic, partial curve]"}
{"smiles": "CCc1ccc(CCOc2ccc(CC3SC(=O)NC3=O)cc2)nc1", "note": "(stereo not given)", "viability, % of control": "inactive: 118%"}
{"smiles": "FC(F)c1nc2ccccc2n1-c1nc(N2CCOCC2)nc(N2CCOCC2)n1", "Potency": "inconclusive: 0.235 µM [cytotoxic, full curve]"}
{"smiles": "CN(C)c1nc(Cc2ccc(NC(=O)c3ccc(C(F)(F)F)cc3)cc2)nc(N(C)C)c1CC(=O)O", "viability, % of control": "inactive: 122%"}
{"smiles": "C[C@@H]1[C@H](C)CC[C@]2(C(=O)O)CC[C@]3(C)C(=CC[C@@H]4[C@@]5(C)CC[C@H](O)C(C)(C)[C@H]5CC[C@]43C)[C@@H]12", "Potency": "inconclusive: 0.0191 µM [rising, full curve, poor fit]"}
{"smiles": "NC(N)=Nc1nc(CSCCC(N)=NS(N)(=O)=O)cs1", "Potency": "inconclusive: 4.69 µM [cytotoxic, partial curve, poor fit]"}
{"smiles": "Cc1cc(C(C)(C)C)cc(C)c1CC1=NCCN1", "Potency": "inconclusive: 0.743 µM [cytotoxic, full curve, poor fit]"}
{"smiles": "O=C(NCCS(=O)(=O)c1ccc(C(F)(F)F)cn1)c1ccc(Cl)cc1", "viability, % of control": "inactive: 105%"}
{"smiles": "COc1cc(N2CCN(C)CC2)ccc1Nc1nc(N)c(C(=O)c2c(Cl)cccc2Cl)s1", "Potency": "inconclusive: 18.7 µM [cytotoxic, partial curve]"}
{"smiles": "CN(C)CCCC1(c2ccc(F)cc2)OCc2cc(C#N)ccc21", "note": "(stereo not given)", "Potency": "inconclusive: 18.7 µM [cytotoxic, partial curve, poor fit]"}
{"smiles": "COc1nc(C)cnc1NS(=O)(=O)c1cccnc1-c1ccc(-c2nnco2)cc1", "viability, % of control": "inactive: 118%"}
{"smiles": "O=C(O)c1ccc(-n2nc(-c3ccccc3O)nc2-c2ccccc2O)cc1", "Potency": "inconclusive: 33.2 µM [cytotoxic, single point]"}
{"smiles": "NCC(=O)Nc1ccc(-n2nc(C(F)(F)F)cc2-c2ccc3c(ccc4ccccc43)c2)cc1", "Potency": "inconclusive: 37.2 µM [cytotoxic, single point]"}
{"smiles": "C[C@H](O)[C@@H]1C(=O)N2C(C(=O)O)=C(S[C@@H]3CN[C@H](CNS(N)(=O)=O)C3)[C@@H](C)[C@@H]12", "viability, % of control": "inactive: 112%"}
{"smiles": "Cc1cnc(-c2cc(N3CCN(C(=O)CCS(C)(=O)=O)CC3)ncc2Cl)c(C)c1", "Potency": "inconclusive: 11.8 µM [cytotoxic, single point]"}
{"smiles": "Cn1cc(-c2ccncc2)c(-c2ccc(OCc3ccc4ccccc4n3)cc2)n1", "Potency": "inconclusive: 13.2 µM [cytotoxic, partial curve]"}
{"smiles": "c1ccc(-c2oc3ncnc(NC[C@@H]4CCCO4)c3c2-c2ccccc2)cc1", "Potency": "inconclusive: 33.2 µM [cytotoxic, single point]"}
{"smiles": "COc1ccc(OC)c(-c2nnc3ccc(-c4ccc(OC)c(O[C@@H]5CCOC5)c4)nn23)c1", "Potency": "active: 7.43 µM"}
{"smiles": "Cc1ccccc1C(=O)c1ccc(Nc2ccc(Br)cc2N)cc1Cl", "Potency": "inconclusive: 26.4 µM [cytotoxic, single point]"}
{"smiles": "C[C@H](CCC(=O)O)[C@H]1CC[C@H]2[C@H]3[C@@H](CC[C@]12C)[C@@]1(C)CC[C@@H](O)C[C@H]1C[C@@H]3O", "Potency": "inconclusive: 20.9 µM [cytotoxic, single point]"}
{"smiles": "COc1ccc2[nH]cc(CCNC(C)=O)c2c1", "Potency": "inconclusive: 37.2 µM [cytotoxic, single point]"}
{"smiles": "Cn1cnc(-c2cc3nccc(Oc4ccc(NC(=S)NC(=O)Cc5ccccc5)cc4F)c3s2)c1", "Potency": "inconclusive: 33.2 µM [cytotoxic, single point]"}
{"smiles": "CC[C@H](C)C(=O)O[C@H]1C[C@@H](C)C=C2C=C[C@H](C)[C@H](CC[C@@H]3C[C@@H](O)CC(=O)O3)[C@H]21", "Potency": "active: 23.5 µM"}
{"smiles": "CCOC(=O)[C@@H](N)CCC(=O)N[C@@H](CSCc1ccccc1)C(=O)N[C@@H](C(=O)OCC)c1ccccc1", "viability, % of control": "inactive: 97.6%"}
{"smiles": "CN[C@H]1[C@@H](O[C@@H]2[C@H](O[C@@H]3[C@@H](O)[C@@H](O)[C@@H](N=C(N)N)[C@@H](O)[C@@H]3N=C(N)N)O[C@H](C)[C@@]2(O)C=O)O[C@@H](CO)[C@@H](O)[C@H]1O", "Potency": "inconclusive: 0.946 µM [cytotoxic, partial curve, poor fit]"}
{"smiles": "COc1ccc2cc1Oc1ccc(cc1)C[C@H]1c3cc(c(OC)cc3CCN1C)Oc1c(OC)c(OC)cc3c1[C@H](C2)N(C)CC3", "Potency": "inconclusive: 14.8 µM [cytotoxic, partial curve]"}
{"smiles": "O=C(O)CCc1ccc(NCc2cccc(Oc3ccccc3)c2)cc1", "Potency": "inconclusive: 0.0053 µM [rising, full curve, poor fit]"}
{"smiles": "OCCn1cc(-c2ccc3c(c2)CCC3=NO)c(-c2ccncc2)n1", "Potency": "inconclusive: 33.2 µM [cytotoxic, single point]"}
{"smiles": "O=C1CSC(=O)N1C(CCc1ccncc1)COc1ccc(-c2cccc([N+](=O)[O-])c2)cc1", "note": "(stereo not given)", "Potency": "inconclusive: 11.8 µM [cytotoxic, partial curve]"}
{"smiles": "COc1c2occc2cc2ccc(=O)oc12", "Potency": "inconclusive: 0.264 µM [cytotoxic, full curve, poor fit]"}
{"smiles": "COc1ccc(-c2ccc3cc(C(=O)O)ccc3c2)cc1C12CC3CC(CC(C3)C1)C2", "Potency": "inconclusive: 0.0047 µM [cytotoxic, full curve, poor fit]"}
{"smiles": "NC(=O)c1cccnc1", "viability, % of control": "inactive: 119%"}
{"smiles": "O=C(O)c1cn(C2CC2)c2cc(N3CCNCC3)c(F)cc2c1=O", "viability, % of control": "inactive: 119%"}
{"smiles": "CCOC(=O)C1=C(C)NC(=S)NC1c1cccc(O)c1", "note": "(stereo not given)", "Potency": "inconclusive: 0.0418 µM [cytotoxic, full curve]"}
{"smiles": "CC(C)(Oc1ccc(C2CC2(Cl)Cl)cc1)C(=O)O", "note": "(stereo not given)", "viability, % of control": "inactive: 121% [at 92.2 µM]"}
{"smiles": "CC(C)(S)[C@@H](N)C(=O)O", "Potency": "inconclusive: 0.003 µM [rising, full curve, poor fit]"}
{"smiles": "CC=C(C(=CC)c1ccc(O)cc1)c1ccc(O)cc1", "Potency": "inconclusive: 29.6 µM [cytotoxic, single point]"}
{"smiles": "C[C@@]12C[C@@]3(O)O[C@@H](O1)[C@]1(COC(=O)c4ccccc4)[C@@H]3C[C@@]12O[C@@H]1O[C@H](CO)[C@@H](O)[C@H](O)[C@@H]1O", "viability, % of control": "inactive: 127%"}
{"smiles": "N#CC1(c2cccc(C(=O)Nc3cc(Oc4ccc5nc(NC(=O)C6CC6)sc5n4)ccc3F)c2Cl)CC1", "Potency": "inconclusive: 23.5 µM [cytotoxic, single point]"}
{"smiles": "CCCCCCCCCCCCCCCC(=O)O[C@H]1[C@@H](O)[C@@H](O)[C@@H]([C@H](NC(=O)[C@@H]2C[C@@H](CCC)CN2C)[C@H](C)Cl)O[C@@H]1SC", "Potency": "inconclusive: 4.69 µM [cytotoxic, partial curve, poor fit]"}
